The values below come from the supplement of paper PMC5836539.

Amino acid sequences for entries named in this document (tags omitted). A change or cut given only in a name is not applied to a line headed by its entry.
UniProt O75122: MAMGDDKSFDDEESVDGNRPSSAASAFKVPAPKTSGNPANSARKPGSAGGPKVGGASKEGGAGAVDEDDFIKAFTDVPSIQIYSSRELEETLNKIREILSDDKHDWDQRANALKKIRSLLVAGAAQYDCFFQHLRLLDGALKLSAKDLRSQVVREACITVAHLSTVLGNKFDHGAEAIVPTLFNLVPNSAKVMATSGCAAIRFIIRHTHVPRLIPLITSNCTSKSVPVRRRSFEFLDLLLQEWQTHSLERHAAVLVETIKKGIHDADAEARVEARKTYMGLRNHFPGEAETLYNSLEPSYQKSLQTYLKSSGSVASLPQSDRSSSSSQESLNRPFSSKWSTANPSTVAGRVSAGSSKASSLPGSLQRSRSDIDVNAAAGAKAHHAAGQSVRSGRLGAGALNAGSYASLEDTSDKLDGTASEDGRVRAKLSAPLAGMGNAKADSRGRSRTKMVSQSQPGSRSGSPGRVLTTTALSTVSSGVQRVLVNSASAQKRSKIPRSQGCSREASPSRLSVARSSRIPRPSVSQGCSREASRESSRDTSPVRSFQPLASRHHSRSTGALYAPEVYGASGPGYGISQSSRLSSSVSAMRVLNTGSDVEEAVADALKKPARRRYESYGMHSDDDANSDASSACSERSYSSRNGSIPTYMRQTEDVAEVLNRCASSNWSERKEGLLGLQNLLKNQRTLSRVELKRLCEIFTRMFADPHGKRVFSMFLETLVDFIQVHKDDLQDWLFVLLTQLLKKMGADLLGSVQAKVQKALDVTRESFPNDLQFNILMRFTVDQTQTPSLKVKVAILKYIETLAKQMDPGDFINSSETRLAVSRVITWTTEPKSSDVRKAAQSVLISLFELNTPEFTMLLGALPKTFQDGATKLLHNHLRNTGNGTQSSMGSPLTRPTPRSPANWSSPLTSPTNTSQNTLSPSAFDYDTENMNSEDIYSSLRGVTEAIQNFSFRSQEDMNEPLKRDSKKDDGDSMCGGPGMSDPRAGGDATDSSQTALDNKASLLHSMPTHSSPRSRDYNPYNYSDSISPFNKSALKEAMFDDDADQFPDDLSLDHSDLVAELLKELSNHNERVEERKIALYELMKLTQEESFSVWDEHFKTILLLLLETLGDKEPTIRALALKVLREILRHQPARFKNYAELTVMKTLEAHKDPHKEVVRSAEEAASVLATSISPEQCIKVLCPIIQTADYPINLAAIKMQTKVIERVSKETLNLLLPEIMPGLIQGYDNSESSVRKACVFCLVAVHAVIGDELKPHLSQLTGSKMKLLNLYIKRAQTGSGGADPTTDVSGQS
UniProt Q9Y6D6: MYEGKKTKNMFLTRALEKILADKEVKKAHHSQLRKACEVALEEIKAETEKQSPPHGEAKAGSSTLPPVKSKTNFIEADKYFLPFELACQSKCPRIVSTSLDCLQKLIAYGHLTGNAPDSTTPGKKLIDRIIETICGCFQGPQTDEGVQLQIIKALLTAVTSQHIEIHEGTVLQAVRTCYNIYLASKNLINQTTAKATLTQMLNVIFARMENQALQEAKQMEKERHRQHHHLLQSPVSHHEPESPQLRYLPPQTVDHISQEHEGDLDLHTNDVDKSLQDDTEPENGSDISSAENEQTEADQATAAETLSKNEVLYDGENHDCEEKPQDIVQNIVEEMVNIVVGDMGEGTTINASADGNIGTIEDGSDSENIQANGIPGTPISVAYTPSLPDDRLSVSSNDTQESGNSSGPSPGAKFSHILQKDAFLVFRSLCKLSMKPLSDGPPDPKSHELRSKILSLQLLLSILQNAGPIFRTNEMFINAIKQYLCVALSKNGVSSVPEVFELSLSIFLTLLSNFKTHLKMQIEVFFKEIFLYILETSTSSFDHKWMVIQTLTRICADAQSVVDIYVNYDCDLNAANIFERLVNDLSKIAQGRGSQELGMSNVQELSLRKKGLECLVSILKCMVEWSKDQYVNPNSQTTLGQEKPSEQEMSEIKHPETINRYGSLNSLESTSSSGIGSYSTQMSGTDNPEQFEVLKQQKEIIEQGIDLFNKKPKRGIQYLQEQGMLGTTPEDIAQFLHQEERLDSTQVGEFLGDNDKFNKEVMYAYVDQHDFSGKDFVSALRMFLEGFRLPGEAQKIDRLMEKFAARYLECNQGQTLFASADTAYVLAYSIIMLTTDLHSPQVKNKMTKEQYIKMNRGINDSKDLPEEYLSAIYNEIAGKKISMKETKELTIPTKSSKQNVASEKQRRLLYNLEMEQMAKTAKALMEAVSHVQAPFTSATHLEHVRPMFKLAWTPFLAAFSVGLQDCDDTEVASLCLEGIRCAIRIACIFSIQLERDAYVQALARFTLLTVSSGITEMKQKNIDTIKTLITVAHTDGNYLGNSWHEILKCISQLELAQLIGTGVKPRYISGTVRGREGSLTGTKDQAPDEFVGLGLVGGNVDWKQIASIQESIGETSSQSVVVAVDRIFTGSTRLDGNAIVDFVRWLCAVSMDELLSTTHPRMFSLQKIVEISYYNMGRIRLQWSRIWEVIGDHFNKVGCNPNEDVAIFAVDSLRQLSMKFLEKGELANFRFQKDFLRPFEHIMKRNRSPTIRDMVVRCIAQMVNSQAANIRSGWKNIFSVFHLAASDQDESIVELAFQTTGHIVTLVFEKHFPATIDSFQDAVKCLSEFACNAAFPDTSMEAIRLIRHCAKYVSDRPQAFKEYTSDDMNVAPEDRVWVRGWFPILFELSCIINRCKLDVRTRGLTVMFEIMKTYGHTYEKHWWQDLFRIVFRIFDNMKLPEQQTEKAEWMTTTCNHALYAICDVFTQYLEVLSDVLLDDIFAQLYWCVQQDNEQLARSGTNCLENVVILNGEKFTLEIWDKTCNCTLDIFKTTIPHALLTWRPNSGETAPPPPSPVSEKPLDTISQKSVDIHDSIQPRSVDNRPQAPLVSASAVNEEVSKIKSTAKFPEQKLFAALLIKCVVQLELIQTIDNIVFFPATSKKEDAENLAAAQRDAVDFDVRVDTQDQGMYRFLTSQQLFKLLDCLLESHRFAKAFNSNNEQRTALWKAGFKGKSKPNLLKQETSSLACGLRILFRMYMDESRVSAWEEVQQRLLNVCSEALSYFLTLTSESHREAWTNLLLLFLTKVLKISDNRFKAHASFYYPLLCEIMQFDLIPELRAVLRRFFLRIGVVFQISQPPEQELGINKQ
UniProt Q6NZI2: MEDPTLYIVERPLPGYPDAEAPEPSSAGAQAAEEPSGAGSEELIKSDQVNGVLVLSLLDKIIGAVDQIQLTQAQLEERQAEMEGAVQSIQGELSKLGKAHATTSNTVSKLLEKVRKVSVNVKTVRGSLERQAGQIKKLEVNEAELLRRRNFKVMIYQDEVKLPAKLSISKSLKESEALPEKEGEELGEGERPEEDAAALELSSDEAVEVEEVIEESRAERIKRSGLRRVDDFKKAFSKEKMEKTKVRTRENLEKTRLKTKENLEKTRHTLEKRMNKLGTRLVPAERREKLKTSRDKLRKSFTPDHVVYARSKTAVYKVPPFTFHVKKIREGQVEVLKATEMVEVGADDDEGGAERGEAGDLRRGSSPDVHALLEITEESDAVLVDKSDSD
UniProt P13861, whole entry, looked up: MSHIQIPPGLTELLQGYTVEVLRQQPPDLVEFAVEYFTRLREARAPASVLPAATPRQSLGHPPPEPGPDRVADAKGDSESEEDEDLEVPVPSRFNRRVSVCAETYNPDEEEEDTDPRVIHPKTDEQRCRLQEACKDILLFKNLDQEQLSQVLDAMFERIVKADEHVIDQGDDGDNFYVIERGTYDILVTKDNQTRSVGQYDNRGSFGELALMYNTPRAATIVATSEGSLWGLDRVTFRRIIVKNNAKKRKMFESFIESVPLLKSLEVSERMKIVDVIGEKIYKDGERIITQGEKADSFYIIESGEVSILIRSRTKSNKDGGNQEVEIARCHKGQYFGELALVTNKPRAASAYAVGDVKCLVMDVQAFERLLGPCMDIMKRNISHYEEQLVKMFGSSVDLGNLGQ
UniProt Q9ULH1: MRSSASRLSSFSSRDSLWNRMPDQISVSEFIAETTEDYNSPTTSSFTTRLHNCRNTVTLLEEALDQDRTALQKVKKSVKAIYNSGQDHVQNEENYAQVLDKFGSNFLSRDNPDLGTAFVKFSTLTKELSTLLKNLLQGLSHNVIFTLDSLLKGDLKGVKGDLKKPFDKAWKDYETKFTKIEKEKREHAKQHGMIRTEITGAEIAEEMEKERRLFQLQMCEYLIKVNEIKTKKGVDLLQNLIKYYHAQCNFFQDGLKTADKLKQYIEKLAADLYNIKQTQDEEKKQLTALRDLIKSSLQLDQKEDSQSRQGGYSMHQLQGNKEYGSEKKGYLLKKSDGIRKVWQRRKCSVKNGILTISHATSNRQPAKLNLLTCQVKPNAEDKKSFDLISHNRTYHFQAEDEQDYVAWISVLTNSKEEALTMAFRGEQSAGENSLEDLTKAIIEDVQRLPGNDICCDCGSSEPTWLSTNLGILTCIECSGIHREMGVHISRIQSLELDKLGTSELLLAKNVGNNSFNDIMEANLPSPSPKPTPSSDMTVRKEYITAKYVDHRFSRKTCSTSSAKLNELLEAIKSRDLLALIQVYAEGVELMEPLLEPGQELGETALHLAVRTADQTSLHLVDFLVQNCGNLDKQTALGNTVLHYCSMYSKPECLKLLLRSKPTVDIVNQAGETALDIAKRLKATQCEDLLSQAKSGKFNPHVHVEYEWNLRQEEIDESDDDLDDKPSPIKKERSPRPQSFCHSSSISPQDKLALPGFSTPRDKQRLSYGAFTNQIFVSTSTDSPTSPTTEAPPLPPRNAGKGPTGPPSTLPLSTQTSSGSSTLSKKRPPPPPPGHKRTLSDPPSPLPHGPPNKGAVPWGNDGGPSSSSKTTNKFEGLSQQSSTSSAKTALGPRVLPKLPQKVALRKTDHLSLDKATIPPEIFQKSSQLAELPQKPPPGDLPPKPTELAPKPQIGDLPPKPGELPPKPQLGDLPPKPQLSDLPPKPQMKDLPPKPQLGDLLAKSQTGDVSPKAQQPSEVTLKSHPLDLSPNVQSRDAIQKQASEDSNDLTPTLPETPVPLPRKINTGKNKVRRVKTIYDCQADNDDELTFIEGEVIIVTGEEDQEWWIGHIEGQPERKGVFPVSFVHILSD
UniProt Q9UJX5, whole entry, looked up: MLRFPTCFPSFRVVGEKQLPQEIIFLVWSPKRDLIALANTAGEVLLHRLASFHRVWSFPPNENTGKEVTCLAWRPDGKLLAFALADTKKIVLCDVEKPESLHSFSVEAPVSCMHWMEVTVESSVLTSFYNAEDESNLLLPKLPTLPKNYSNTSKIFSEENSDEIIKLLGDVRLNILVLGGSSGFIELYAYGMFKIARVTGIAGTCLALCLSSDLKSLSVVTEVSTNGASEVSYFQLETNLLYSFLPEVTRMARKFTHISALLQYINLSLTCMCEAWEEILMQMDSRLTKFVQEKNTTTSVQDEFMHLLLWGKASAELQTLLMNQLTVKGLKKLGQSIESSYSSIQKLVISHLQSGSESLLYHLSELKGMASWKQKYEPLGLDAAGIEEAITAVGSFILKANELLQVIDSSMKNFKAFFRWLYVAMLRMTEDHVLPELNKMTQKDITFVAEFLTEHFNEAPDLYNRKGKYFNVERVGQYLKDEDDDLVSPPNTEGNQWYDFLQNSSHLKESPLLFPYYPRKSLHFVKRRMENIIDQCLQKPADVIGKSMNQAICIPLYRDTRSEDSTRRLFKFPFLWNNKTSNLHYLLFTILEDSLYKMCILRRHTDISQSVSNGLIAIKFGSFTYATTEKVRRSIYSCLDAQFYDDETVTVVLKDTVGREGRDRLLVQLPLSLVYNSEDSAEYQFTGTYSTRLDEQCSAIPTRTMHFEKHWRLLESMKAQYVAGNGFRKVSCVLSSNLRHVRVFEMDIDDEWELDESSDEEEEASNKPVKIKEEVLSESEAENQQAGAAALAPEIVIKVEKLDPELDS
UniProt Q9BQI3, whole entry, looked up: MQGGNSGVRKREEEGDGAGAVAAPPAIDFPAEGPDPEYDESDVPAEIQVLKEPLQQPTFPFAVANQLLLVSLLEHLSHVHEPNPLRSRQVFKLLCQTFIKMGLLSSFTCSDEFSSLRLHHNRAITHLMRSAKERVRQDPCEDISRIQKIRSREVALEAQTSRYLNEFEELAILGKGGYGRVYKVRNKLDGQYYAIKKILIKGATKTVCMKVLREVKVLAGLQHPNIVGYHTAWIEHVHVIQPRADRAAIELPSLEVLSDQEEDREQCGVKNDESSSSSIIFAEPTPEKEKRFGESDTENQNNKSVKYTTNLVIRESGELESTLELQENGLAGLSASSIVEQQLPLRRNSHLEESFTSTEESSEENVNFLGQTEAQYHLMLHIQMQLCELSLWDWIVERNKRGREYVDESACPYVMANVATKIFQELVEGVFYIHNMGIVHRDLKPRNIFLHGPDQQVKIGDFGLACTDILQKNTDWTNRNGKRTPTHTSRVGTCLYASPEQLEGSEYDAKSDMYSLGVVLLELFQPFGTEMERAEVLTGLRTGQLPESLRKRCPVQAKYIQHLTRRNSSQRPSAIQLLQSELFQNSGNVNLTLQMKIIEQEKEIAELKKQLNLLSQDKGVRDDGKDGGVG

± gives the standard deviation of the averaged measurements. Repeats in this data set agree poorly, so a single value says little.

Compound in this assay: CC[C@@H](C)Nc1cc(C(=O)N[C@H]2C[C@H]3CC[C@@H](C2)N3c2ccc(C(=O)C3CC3)cn2)c(C)cc1C(N)=O [XL888]
In words: phosphopeptide melting temperature shift (XL888 minus DMSO); higher = stabilised by drug treatment. Conditions: 100 µM; treatment time 2 h; layout: intact cells; SK-Mel 28. How it is done: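 Phospho-TPP in intact SK-Mel 28 cells treated with 100 uM XL888 or DMSO for 2 h, heated at 10 temperatures (37-67 C) for 3 min, soluble fraction TMT10plex-labelled and TiO2 phospho-enriched. Melting curves were fitted per phosphopeptide; the value is the melting point difference (drug minus vehicle) in each of two biological replicates.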
For the target “UniProt Q14671-2_phosphosite_683 (phosphosite position: 683)”, the “phosphopeptide melting temperature shift” value came out at 0.21 °C.

“CLASP2 phosphosite_596 (phosphosite position: 596) (UniProt O75122)”: the “phosphopeptide melting temperature shift” value is 1.79 ± 1.3 °C.

Turning to “CCDC9 phosphosite_521 (phosphosite position: 521) (UniProt Q9Y3X0)”, the “phosphopeptide melting temperature shift” value stood at 0.12 °C.

“UniProt Q8TB72-4_phosphosite_80 (phosphosite position: 80)”: the “phosphopeptide melting temperature shift” value is -1.23 °C.

Regarding “CSTF3 phosphosite_691 (phosphosite position: 691) (UniProt Q12996)”, the “phosphopeptide melting temperature shift” value turned out to be 2.45 °C.

On to “NUFIP2 phosphosite_652 (phosphosite position: 652) (UniProt Q7Z417)”, for which the “phosphopeptide melting temperature shift” value is -0.864 °C.

“UniProt Q14678-2_phosphosite_28 (phosphosite position: 28)”: the “phosphopeptide melting temperature shift” value was found to be 3.22 °C.

Take “TJP1 phosphosite_125 (phosphosite position: 125) (UniProt Q07157)”: the “phosphopeptide melting temperature shift” value stood at 0.558 ± 0.15 °C.

“CTPS2 phosphosite_568 (phosphosite position: 568) (UniProt Q9NRF8)”: the “phosphopeptide melting temperature shift” value is 0.337 ± 1.2 °C.

For the target “UniProt Q9H0G5_phosphosite_275 (phosphosite position: 275)”, the “phosphopeptide melting temperature shift” value was 4.33 °C.

Turning to “UniProt Q9H3Q1-2_phosphosite_222 (phosphosite position: 222)”, the “phosphopeptide melting temperature shift” value was determined as 3.77 °C.

As to “ZNF652 phosphosite_100 (phosphosite position: 100) (UniProt Q9Y2D9)”, the “phosphopeptide melting temperature shift” value amounted to 4.19 ± 1 °C.

Turning to “UniProt Q9Y2L9-2_phosphosite_370 (phosphosite position: 370)”, the “phosphopeptide melting temperature shift” value is 0.39 °C.

On to “UniProt Q15149_phosphosite_149 (phosphosite position: 149)”, for which the “phosphopeptide melting temperature shift” value was -0.546 °C.

Take “ARFGEF1 phosphosite_1555 (phosphosite position: 1555) (UniProt Q9Y6D6)”: the “phosphopeptide melting temperature shift” value amounted to 1.68 °C.

In the case of “UniProt Q5THJ4-2_phosphosite_1709 (phosphosite position: 1709)”, the “phosphopeptide melting temperature shift” value stood at 1.11 °C.

With “AHNAK phosphosite_511 (phosphosite position: 511) (UniProt Q09666)”, the “phosphopeptide melting temperature shift” value is -4.45 °C.

Regarding “MYO18A phosphosite_2020 (phosphosite position: 2020) (UniProt Q92614)”, the “phosphopeptide melting temperature shift” value was 0.174 ± 0.022 °C.

Turning to “UniProt Q8NBN3-3_phosphosite_479 (phosphosite position: 479)”, the “phosphopeptide melting temperature shift” value was 1.52 °C.

For the target “UniProt P98174_phosphosite_48 (phosphosite position: 48)”, the “phosphopeptide melting temperature shift” value worked out at 1.13 °C.

With “MED1 phosphosite_774 (phosphosite position: 774) (UniProt Q15648)”, the “phosphopeptide melting temperature shift” value turned out to be 1.61 ± 1.1 °C.

Regarding “UniProt O14617-2_phosphosite_541 (phosphosite position: 541)”, the “phosphopeptide melting temperature shift” value was 0.374 ± 0.27 °C.

In the case of “UniProt P55196-3_phosphosite_1194 (phosphosite position: 1194)”, the “phosphopeptide melting temperature shift” value was -0.386 °C.

As for “UniProt Q5VTB9-3_phosphosite_177 (phosphosite position: 177)”, the “phosphopeptide melting temperature shift” value stood at 0.302 ± 0.37 °C.

As for “UniProt O15027-2_phosphosite_391 (phosphosite position: 391)”, the “phosphopeptide melting temperature shift” value came out at 1.46 ± 0.92 °C.

As for “MTMR1 phosphosite_655 (phosphosite position: 655) (UniProt Q13613)”, the “phosphopeptide melting temperature shift” value is -1.59 °C.

Consider “UniProt Q3V6T2-5_phosphosite_1674 (phosphosite position: 1674)”, for which the “phosphopeptide melting temperature shift” value worked out at 1.14 °C.

Turning to “PRPF4B phosphosite_257 (phosphosite position: 257) (UniProt Q13523)”, the “phosphopeptide melting temperature shift” value was -1.54 °C.

As to “UniProt Q6NZI2_phosphosite_203 (phosphosite position: 203)”, the “phosphopeptide melting temperature shift” value was 1.71 ± 1.6 °C.

For “NCBP1 phosphosite_22 (phosphosite position: 22) (UniProt Q09161)”, the “phosphopeptide melting temperature shift” value is -0.159 °C.

Regarding “UniProt Q13136-2_phosphosite_708 (phosphosite position: 708)”, the “phosphopeptide melting temperature shift” value turned out to be 0.594 ± 0.66 °C.

Consider “UniProt Q8WUA7-3_phosphosite_96 (phosphosite position: 96)”, for which the “phosphopeptide melting temperature shift” value was -1.3 °C.

For “UniProt Q96QB1-4_phosphosite_12 (phosphosite position: 12)”, the “phosphopeptide melting temperature shift” value was 0.461 ± 0.56 °C.

Take “MAP1B phosphosite_992 (phosphosite position: 992) (UniProt P46821)”: the “phosphopeptide melting temperature shift” value was found to be 0.6 ± 1.5 °C.

As for “UniProt Q6ICG6-3_phosphosite_290 (phosphosite position: 290)”, the “phosphopeptide melting temperature shift” value amounted to 1.52 ± 0.81 °C.

“UniProt O00141-4_phosphosite_68 (phosphosite position: 68)”: the “phosphopeptide melting temperature shift” value amounted to 5.7 °C.

For “PTPN14 phosphosite_594 (phosphosite position: 594) (UniProt Q15678)”, the “phosphopeptide melting temperature shift” value came out at 1.63 ± 1.1 °C.

As to “UniProt P13807-2_phosphosite_589 (phosphosite position: 589)”, the “phosphopeptide melting temperature shift” value is -0.644 °C.

On to “PRPF4B phosphosite_437 (phosphosite position: 437) (UniProt Q13523)”, for which the “phosphopeptide melting temperature shift” value was -0.0353 °C.

For “PRKAR2A phosphosite_78 (phosphosite position: 78) (UniProt P13861)”, the “phosphopeptide melting temperature shift” value worked out at 1.12 ± 0.6 °C.

In the case of “PPIG phosphosite_753 (phosphosite position: 753) (UniProt Q13427)”, the “phosphopeptide melting temperature shift” value is -1.85 °C.

Turning to “MAP1B phosphosite_1793 (phosphosite position: 1793) (UniProt P46821)”, the “phosphopeptide melting temperature shift” value was determined as 0.616 ± 0.2 °C.

For the target “ZC3H4 phosphosite_94 (phosphosite position: 94) (UniProt Q9UPT8)”, the “phosphopeptide melting temperature shift” value was -0.0137 °C.

“MED13 phosphosite_890 (phosphosite position: 890) (UniProt Q9UHV7)”: the “phosphopeptide melting temperature shift” value turned out to be 1.05 °C.

For the target “UniProt Q9Y5B6-2_phosphosite_558 (phosphosite position: 558)”, the “phosphopeptide melting temperature shift” value is 0.82 °C.

“SURF2 phosphosite_190 (phosphosite position: 190) (UniProt Q15527)”: the “phosphopeptide melting temperature shift” value worked out at 1.42 ± 0.43 °C.

As to “MED1 phosphosite_770 (phosphosite position: 770) (UniProt Q15648)”, the “phosphopeptide melting temperature shift” value was 0.592 ± 0.94 °C.

In the case of “CBX3 phosphosite_97 (phosphosite position: 97) (UniProt Q13185)”, the “phosphopeptide melting temperature shift” value is 0.404 ± 0.19 °C.

As for “ASAP1 phosphosite_1128 (phosphosite position: 1128) (UniProt Q9ULH1)”, the “phosphopeptide melting temperature shift” value amounted to 0.147 ± 0.36 °C.

Regarding “UniProt Q9NQC3-5_phosphosite_188 (phosphosite position: 188)”, the “phosphopeptide melting temperature shift” value was found to be 0.174 °C.

“IRS2 phosphosite_560 (phosphosite position: 560) (UniProt Q9Y4H2)”: the “phosphopeptide melting temperature shift” value was -3.27 °C.

For “SRRM1 phosphosite_581 (phosphosite position: 581) (UniProt Q8IYB3)”, the “phosphopeptide melting temperature shift” value is 2.69 °C.

As for “CBX3 phosphosite_99 (phosphosite position: 99) (UniProt Q13185)”, the “phosphopeptide melting temperature shift” value was 0.787 ± 0.55 °C.

Consider “UniProt P30622-2_phosphosite_204 (phosphosite position: 204)”, for which the “phosphopeptide melting temperature shift” value was found to be 5.3 ± 2.7 °C.

As for “PI4K2A phosphosite_47 (phosphosite position: 47) (UniProt Q9BTU6)”, the “phosphopeptide melting temperature shift” value is 2.41 °C.

For the target “UniProt Q96BY6-3_phosphosite_1251 (phosphosite position: 1251)”, the “phosphopeptide melting temperature shift” value was 0.0629 °C.

For the target “SRRM2 phosphosite_2729 (phosphosite position: 2729) (UniProt Q9UQ35)”, the “phosphopeptide melting temperature shift” value stood at 4.96 °C.

On to “UniProt Q14678-2_phosphosite_167 (phosphosite position: 167)”, for which the “phosphopeptide melting temperature shift” value was -0.177 °C.

Consider “ANAPC4 phosphosite_779 (phosphosite position: 779) (UniProt Q9UJX5)”, for which the “phosphopeptide melting temperature shift” value worked out at 0.52 ± 2.2 °C.

Turning to “AHNAK phosphosite_4766 (phosphosite position: 4766) (UniProt Q09666)”, the “phosphopeptide melting temperature shift” value was 0.892 °C.

Consider “UniProt O15164-2_phosphosite_991 (phosphosite position: 991)”, for which the “phosphopeptide melting temperature shift” value was -0.845 °C.

For the target “SP100 phosphosite_362 (phosphosite position: 362) (UniProt P23497)”, the “phosphopeptide melting temperature shift” value amounted to 4.12 °C.

Consider “UniProt O00203-3_phosphosite_703 (phosphosite position: 703)”, for which the “phosphopeptide melting temperature shift” value was found to be 1.03 ± 0.56 °C.

Take “SMC3 phosphosite_1067 (phosphosite position: 1067) (UniProt Q9UQE7)”: the “phosphopeptide melting temperature shift” value is -0.534 ± 0.43 °C.

Take “UniProt O95359-2_phosphosite_25 (phosphosite position: 25)”: the “phosphopeptide melting temperature shift” value turned out to be 1.69 °C.

For “UniProt Q9BQI3-2_phosphosite_257 (phosphosite position: 257)”, the “phosphopeptide melting temperature shift” value was 2.01 °C.

Regarding “UniProt Q12851-2_phosphosite_328 (phosphosite position: 328)”, the “phosphopeptide melting temperature shift” value was -0.397 ± 0.18 °C.
